Percent effect of library compounds

Measurements from “University of Dundee, Small-Polar-MMV Screening Library” (2021), ChEMBL document CHEMBL3988442.

Mtb cholesterol medium: 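Phenotypic screen: M. tuberculosis growth, cholesterol and DPPC medium, 4 days; the read-out is not stated. Compounds at 50 µM. Higher reads as more growth inhibition (inferred: compounds with an IC50 in retests scored well above the rest). Of about 69,000 compounds tested this way, about 370 (0.54%) reached 50% or more in at least one test.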
Mtb glucose medium: 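Whole-cell growth test on Mycobacterium tuberculosis, read after 3 days in glucose-containing 7H9 medium; the read-out is not stated. Concentration: 50 µM. The record gives no direction; compounds that gave an IC50 in retests scored well above the rest, so higher reads as more growth inhibition. Size under these conditions: about 69,000 compounds, about 760 of them at 50% or above in at least one test.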

Results are given as percent effect.
The controls that fix the scale are not given in the record; negative values are as filed.
This is an unselected part of the compounds tested.
Two or more numbers in one place are separate tests of the same structure; such repeats can differ widely.

{"compound": "COc1cccc(S(=O)(=O)CCN2CCN(CC(F)F)CC2)c1", "Mtb cholesterol medium": 5.971, "Mtb glucose medium": 18.25}
{"compound": "COc1ccccc1-c1cc(NC(=O)CCS(=O)(=O)C2CCCC2)[nH]n1", "Mtb cholesterol medium": -32.06, "Mtb glucose medium": -32.88}
{"compound": "CC(C)SCc1cccc(NC2CCN(C)C2=O)c1", "stereo": "configuration not stated", "Mtb cholesterol medium": 10.02, "Mtb glucose medium": 0.5927}
{"compound": "Cc1cccc(-c2cc(-c3c(C)nn(CCO)c3C)c(C#N)c(N)n2)c1", "Mtb cholesterol medium": -17.66, "Mtb glucose medium": -11.66}
{"compound": "NC(=O)COc1cccc(CN2CCCC2c2ccc[nH]2)c1", "stereo": "configuration not stated", "Mtb cholesterol medium": 5.347, "Mtb glucose medium": "2.044 & 3.485"}
{"compound": "CCC(=O)N1CCC2(CCN(Cc3cccc(F)c3)CC2)CC1.O=C(O)C(F)(F)F", "Mtb cholesterol medium": 23.08, "Mtb glucose medium": "-3.773 & 7.786"}
{"compound": "CC(=O)Nc1ccc(S(=O)(=O)NC(=O)CCC2CCCO2)cc1", "stereo": "configuration not stated", "Mtb cholesterol medium": -25.86, "Mtb glucose medium": 6.896}
{"compound": "CCN(c1ccc(C(=O)N2CCCC2c2cnn(C)c2)cn1)C(C)C", "stereo": "configuration not stated", "Mtb cholesterol medium": -5.692, "Mtb glucose medium": -47.17}
{"compound": "Cc1ccc(C)c(-c2csc(N)c2C#N)c1", "Mtb cholesterol medium": 8.659, "Mtb glucose medium": 31.39}
{"compound": "CCNC(=O)Nc1ccc2c(ccn2CC(=O)N(CC)CC)c1", "Mtb cholesterol medium": 6.417, "Mtb glucose medium": -26.05}
{"compound": "O=C(c1ccc2c(c1)OCO2)N1CCC(C(=O)O)(c2ccccc2)CC1", "Mtb cholesterol medium": -10.2, "Mtb glucose medium": 2.257}
{"compound": "COCCN1CCC2(CC1)CC(CC(N)=O)c1ccc(F)cc12", "stereo": "configuration not stated", "Mtb cholesterol medium": -10.53, "Mtb glucose medium": "-32.33 & -6.826"}
{"compound": "COc1ccccc1C(O)CNC(=O)NCc1cccnc1OC", "stereo": "configuration not stated", "Mtb cholesterol medium": -10.28, "Mtb glucose medium": -12.57}
{"compound": "CN(CCO)Cc1nnc(C2CCN(C(=O)c3cccn3C)CC2)n1C", "Mtb cholesterol medium": "-7.969 & 6.711", "Mtb glucose medium": -28.12}
{"compound": "COCCCN1CCC(N(Cc2noc(C)n2)C(C)=O)C1", "stereo": "configuration not stated", "Mtb cholesterol medium": 4.296, "Mtb glucose medium": 4.953}
{"compound": "CC(NC(=O)NCC1(N2CCCCC2)CCCCC1)c1nncn1C", "stereo": "configuration not stated", "Mtb cholesterol medium": -13.28, "Mtb glucose medium": 4.908}
{"compound": "Cc1[nH]ccc1C(=O)N[C@H]1CN(CCO)C[C@@H]1C1CC1", "Mtb cholesterol medium": -24.32, "Mtb glucose medium": "5.451 & 17.02"}
{"compound": "Fc1ccc(Oc2nccnc2C2CCN(C3CCOCC3)CC2)cc1", "Mtb cholesterol medium": -8.362, "Mtb glucose medium": 19.58}
{"compound": "CCn1cc(Cl)c(C(=O)NCCOC)n1", "Mtb cholesterol medium": 5.177, "Mtb glucose medium": 17.99}
{"compound": "O=C(NCC(O)COc1ccc(C(F)(F)F)cc1)Nc1nncs1", "stereo": "configuration not stated", "Mtb cholesterol medium": 33.49, "Mtb glucose medium": 46.78}
{"compound": "Cc1ccoc1C(=O)N1CCCc2c(c(=O)n(C)n2C)C1", "Mtb cholesterol medium": "0.8477 & -17.46", "Mtb glucose medium": "-14.79 & -23.92"}
{"compound": "C=C(C)CN1CCN(CCC(=O)Nc2ccccc2C(N)=O)CC1", "Mtb cholesterol medium": 5.445, "Mtb glucose medium": 12.96}
{"compound": "O=C1CCC(=O)N1CCN1CCC(=Cc2ccccc2)CC1", "Mtb cholesterol medium": 3.022, "Mtb glucose medium": -2.746}
{"compound": "Cc1ccc(C(=O)NCc2ccc(N3CCNC(=O)C3)c(F)c2)cc1", "Mtb cholesterol medium": "-10.84 & 0.1605", "Mtb glucose medium": -11.3}
{"compound": "Cc1nc(C)n(CC2CCCN2c2ncnc3c2CCC3)n1", "stereo": "configuration not stated", "Mtb cholesterol medium": -10.39, "Mtb glucose medium": "-9.522 & -29.09"}
{"compound": "CN(C)c1ccc(CNC(=O)NCCc2cn3ccccc3n2)cn1", "Mtb cholesterol medium": -17.08, "Mtb glucose medium": -7.213}
{"compound": "COc1ccc(OCc2nccc(-c3cc(C(=O)O)ccn3)n2)cc1", "Mtb cholesterol medium": 18.21, "Mtb glucose medium": 13.2}
{"compound": "FC(F)(F)COCCN1CCc2cncnc2C1", "Mtb cholesterol medium": -8.98, "Mtb glucose medium": -68.81}
{"compound": "C[C@@H]1CN(C(=O)CCN2CCCC2)CC[C@@]1(O)C1CCOCC1", "Mtb cholesterol medium": 12.07, "Mtb glucose medium": 2.072}
{"compound": "CN1CC(=O)N(c2cnn(C)c2)CC12CCN(C(=O)c1ccsc1)C2.O=C(O)C(F)(F)F", "stereo": "configuration not stated", "Mtb cholesterol medium": -10.23, "Mtb glucose medium": 2.419}
{"compound": "CC(=O)N1CCC2(CC1)CCN(S(=O)(=O)c1ccccc1)C2", "Mtb cholesterol medium": -8.498, "Mtb glucose medium": -24.51}
{"compound": "CC(C)Cc1cc(NC(=O)N2CCC(Oc3cccnc3)C2)n(C)n1", "stereo": "configuration not stated", "Mtb cholesterol medium": -1.123, "Mtb glucose medium": 9.365}
{"compound": "COCCn1ccnc1CN1CCc2[nH]cnc2C1c1cnn(C)c1C", "stereo": "configuration not stated", "Mtb cholesterol medium": 1.842, "Mtb glucose medium": -5.376}

The first 3 entries again:

{"compound": "COc1cccc(S(=O)(=O)CCN2CCN(CC(F)F)CC2)c1", "Mtb cholesterol medium": 5.971, "Mtb glucose medium": 18.25}
{"compound": "COc1ccccc1-c1cc(NC(=O)CCS(=O)(=O)C2CCCC2)[nH]n1", "Mtb cholesterol medium": -32.06, "Mtb glucose medium": -32.88}
{"compound": "CC(C)SCc1cccc(NC2CCN(C)C2=O)c1", "stereo": "configuration not stated", "Mtb cholesterol medium": 10.02, "Mtb glucose medium": 0.5927}